# Test results as given in patent US20200123231A1 (RESEARCH FOUNDATION OF THE CITY UNIVERSITY OF NEW YORK, published 2020).
# B1: peptide Col877 (collagen-mimetic triple helix, three C877-domain units) (peptide)
# chain: GPCCGPPGPPGPPGPPGPVGPAGKSGDRGETGPAGPAGPVGPVGARGPAGPQGPRGDKGETGEQGDRGIKGHRGFSGLQGPPGPPGSPGEQGPSGASGPAGPRGPPGSAGAPGKDGLNGLPGPIGPPGPPGPPGPPGPVGPAGKSGDRGETGPAGPAGPVGPVGARGPAGPQGPRGDKGETGEQGDRGIKGHRGFSGLQGPPGPPGSPGEQGPSGASGPAGPRGPPGSAGAPGKDGLNGLPGPIGPPGPPGPPGPPGPVGPAGKSGDRGETGPAGPAGPVGPVGARGPAGPQGPRGDKGETGEQGDRGIKGHRGFSGLQGPPGPPGSPGEQGPSGASGPAGPRGPPGSAGAPGKDGLNGLPGPIGPPGPPGPPGPPGPCCGYIPEAPRDGQAYVRKDGEWVLLSTFL
# notes: Designed peptide; Forms a collagen triple helix (trimer) with Cys-knots and foldon; also called Col887
# Molecular target: the molecule itself
# Test: self-assembly of triple helices, electron microscopy
# Description: FIG. 4A and FIG. 4B are TEM images of the d-periodic mini-fibrils of Col877. The fibril formation was initiated by transferring Col877 in 5 mM acetic acid (pH 4.5) to TES buffer (pH 7) and incubated for 24 hr at 37° C. The samples were stained with 1% sodium phosphotungstate; magnification factor 10,000; the scale bar is 200 nm. The two images were taken for two different preparations under identical treatments. These figures show Col887 successfully forms fibrils.
protein,measurement,value
B1,binding result,binds
